Laboratory results: the supplement of paper PMC10735217
Counter-ions that a name gives are not always drawn. This is one part of the list. This data set is noisy: repeats of one test often differ as much as different tests do.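 Human kidney-derived cells stably carry a construct in which eight TEAD-binding elements drive luciferase, measured by luminescence in a drug-repurposing library screen. A hit is any compound whose signal exceeds the plate mean by more than five robust Z scores.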

System: HEK293A TEAD-LUC reporter
Test: TEAD-luciferase reporter activity (YAP activation), robust Z score vs plate; higher = stronger YAP/TEAD activation
Details: 24 h

Row | SMILES | TEAD-luciferase reporter activity (compound concentration: 200 nM) | TEAD-luciferase reporter activity (compound concentration: 2 uM) | TEAD-luciferase reporter activity (compound concentration: 10 uM)
1 | N=C(N)c1ncn([C@@H]2O[C@H](CO)C(O)C2O)n1 (stereo partly specified) [Taribavirin hydrochloride] | inactive: -0.772 | inactive: -0.695 | inactive: -0.315
2 | CN(Cc1cc(Br)cc(Br)c1NC(=O)[C@H](CSSC[C@H](NC(=O)OCc1ccccc1)C(=O)O)NC(=O)OCc1ccccc1)C1CCCCC1 | inactive: -0.451 | inactive: 2.6 | inactive: -0.733
3 | CCOc1cc([C@@H](CS(C)(=O)=O)N2Cc3cccc(NC(=O)C4CC4)c3C2=O)ccc1OC | inactive: -0.67 | inactive: 1.08 | inactive: 0.749
4 | NC(CO)(CO)CO | inactive: -1.31 | – | inactive: 1.14
5 | NC(CO)(CO)CO [Trometamol] | – | inactive: -1.68 | –
6 | Cc1ccc(CN2CCCC23Cc2ccccc2CNC3=O)cc1 (stereo unspecified) | inactive: 5.3e-05 | – | inactive: 3.59
7 | CC1(C)Oc2ccc(C#N)cc2[C@H](N2CCCC2)[C@H]1O [Pharmaprojects No. 557] | inactive: -0.812 | inactive: -1.67 | inactive: 3.24
8 | CCOc1cc(/C=C(/C#N)C(N)=O)cc(CSc2ccccc2)c1O | inactive: -1.52 | inactive: -1.14 | inactive: -0.615
9 | FC(F)(F)c1ccc(CNc2ccc(Cc3c[nH]c4ncc(Cl)cc34)cn2)cn1 [Pexidartinib] | inactive: -0.608 | inactive: -0.831 | inactive: -0.776
10 | O=C(O)CN1C(=O)c2cccc3cccc(c23)C1=O [alrestatin] | inactive: 1.46 | inactive: -0.32 | inactive: 2.78
11 | NC(=O)[C@H](CCC(=O)O)NC(=O)Cc1ccccc1 | inactive: -0.883 | inactive: -1.5 | inactive: 0.966
12 | Cc1cc(=O)oc2cc(OS(=O)(=O)[O-])ccc12 | inactive: -0.72 | inactive: -1.37 | inactive: -1.23
13 | CC(=O)Oc1ccccc1C(=O)Nc1ncc(Cl)s1 | inactive: -0.507 | inactive: -0.42 | inactive: -0.00996
14 | Cc1cc(Cl)c(OCCOc2ccc(C3=C(C(=O)N(Cc4cccc(C)c4C)C4CC4)C4CNCC(C3)N4)cc2)c(Cl)c1 (stereo unspecified) | inactive: 2.16 | inactive: 1.46 | inactive: 2.49
15 | C/C(=C/C=C/C(C)=C/C(=O)O)c1cc(C(C)(C)C)cc(C(C)(C)C)c1OCC(F)F | inactive: -2.29 | inactive: -0.656 | inactive: 0.693
16 | CCOC(=O)CCN[N+](C)(C)CC | inactive: 2.34 | inactive: -0.194 | inactive: 1.33
17 | O=C(c1cc(Cl)cc2nc(N3CCN(C4CC4)CC3)ccc12)C1CC1 | inactive: -0.776 | inactive: 0.407 | inactive: 0.607
18 | Cn1c([N+](=O)[O-])cnc1N1CCN(S(C)(=O)=O)C1=O [satranidazole] | inactive: 0.103 | inactive: -0.0762 | inactive: 4.4
19 | COC1CCN(S(=O)(=O)c2c(Cl)cccc2Cl)CC1 | inactive: -0.692 | inactive: -1.67 | inactive: -1.68
20 | CC(C)(Oc1ccc(C(=O)c2ccc(Cl)cc2)cc1)C(=O)NCCS(=O)(=O)O | inactive: -1.98 | inactive: 1.85 | inactive: 1.06

Row | SMILES | TEAD-luciferase reporter activity (compound concentration: 200 nM) | TEAD-luciferase reporter activity (compound concentration: 2 uM) | TEAD-luciferase reporter activity (compound concentration: 10 uM)
21 | CCCCC(=O)OCC(C)COC(=O)C(C)(C)C (stereo unspecified) | inactive: -0.244 | inactive: 0.681 | inactive: 0.148
22 | CC(C)C(=O)N1Cc2ccccc2CC2(CCCCN2CC2CCOCC2)C1 (stereo unspecified) | inactive: -1.25 | – | inactive: 0.904
23 | CC(C)=NNc1nc2c(N)ncnc2n1[C@@H]1O[C@H](CO)[C@@H](O)[C@H]1O | inactive: -0.497 | inactive: -0.597 | inactive: -2.44
24 | O=c1ccn(C2OC(CO)C(O)C2O)c(=O)[nH]1 (stereo unspecified) [uridine, RepliGen] | inactive: -1.33 | – | active: 6.44
25 | O=c1ccn(C2OC(CO)C(O)C2O)c(=O)[nH]1 (stereo unspecified) [uridine] | – | inactive: 0.161 | –
26 | CC[C@H](C)[C@H](NC(=O)[C@H](CC(C)C)NC(=O)[C@H](CC(N)=O)NC(=O)[C@H](C)NC(=O)[C@H](Cc1ccccc1)NC(=O)[C@H](CC(N)=O)NC(=O)[C@H](CC(C)C)NC(=O)[C@H](CC(C)C)NC(=O)[C@@H](N)CO)C(=O)N[C@@H](CCC(=O)O)C(=O)O [Oxynor] | inactive: 0.709 | inactive: 0.628 | inactive: 1.78
27 | O=C(O)c1ccc2c(c1)C=C(n1ccnc1)CC2 [rolafagrel] | inactive: -1.61 | inactive: -1.81 | inactive: 0.89
28 | [S]=[Mo](=[S])([S-])[S-] [choline tetrathiomolybdate] | inactive: -1.37 | inactive: 1.25 | inactive: 0.249
29 | CCCCCCC(C(=O)O)n1ccc2cc(-c3ccccc3-c3nn[nH]n3)ccc21 (stereo unspecified) | inactive: -0.418 | inactive: -0.145 | inactive: 0.0194
30 | C[C@H](NC(=O)[C@@H](Cc1c[nH]c2ccccc12)NC(=O)[C@@H](N)Cc1cnc[nH]1)C(=O)N[C@@H](Cc1c[nH]c2ccccc12)C(=O)N[C@H](Cc1ccccc1)C(=O)N[C@@H](CCCCN)C(N)=O | inactive: -1.16 | inactive: -1.42 | inactive: 0.228
31 | CN(C)CCCNC(=O)/C(=C/CCCCC(=O)NO)COc1cccc2ccccc12 | inactive: 2.86 | active: 21.4 | active: 25.7
32 | c1ccc(OCc2ccc(CCCN3CCOCC3)cc2)cc1 [Erbocain] | inactive: -1.24 | inactive: -0.339 | inactive: 1.36
33 | CC(C)(CO)C(O)C(=O)NCCCO (stereo unspecified) [dexpanthenol, Bayer] | inactive: -0.0452 | – | inactive: 0.0881
34 | CC(C)(CO)C(O)C(=O)NCCCO (stereo unspecified) [dexpanthenol] | – | inactive: -1.08 | –
35 | O=C(NN1CCCCC1)c1nn(-c2ccc(Cl)cc2Cl)c(-c2ccc(C#Cc3ccc(C(F)(F)F)cc3)s2)c1CNS(=O)(=O)N1CCCC1 | inactive: -0.57 | inactive: -0.915 | inactive: -0.726
36 | C[N+](C)(C)CC(O)C[N+](C)(C)C | inactive: -0.392 | inactive: -0.177 | inactive: -0.359
37 | CC1(C)C(=O)NC2=Nc3ccc(Cl)c(Cl)c3CN21 | inactive: -0.653 | inactive: 0.0493 | inactive: -1.17
38 | CC(C(=O)O)c1ccc(-c2ccsc2)cc1 (stereo unspecified) | inactive: -0.303 | inactive: -0.5 | inactive: -1.46
39 | O=C(O)c1ccccc1C(=O)N1CCSC1 [Nesosteine sodium] | inactive: 1.13 | inactive: -1.7 | inactive: -0.9
40 | COc1cccc(C#CCO/N=C2\CN3CC[C@@H]2C3)c1 | inactive: 0.193 | inactive: 0.629 | active: 8.51

A second format for part of the listing above.
CC(C)C(=O)N1Cc2ccccc2CC2(CCCCN2CC2CCOCC2)C1 (stereo unspecified)
  TEAD-luciferase reporter activity (compound concentration: 200 nM): inactive: -1.25
  TEAD-luciferase reporter activity (compound concentration: 10 uM): inactive: 0.904
O=C(O)c1ccc2c(c1)C=C(n1ccnc1)CC2 [rolafagrel]
  TEAD-luciferase reporter activity (compound concentration: 200 nM): inactive: -1.61
  TEAD-luciferase reporter activity (compound concentration: 2 uM): inactive: -1.81
  TEAD-luciferase reporter activity (compound concentration: 10 uM): inactive: 0.89
CC(C)(CO)C(O)C(=O)NCCCO (stereo unspecified) [dexpanthenol, Bayer]
  TEAD-luciferase reporter activity (compound concentration: 200 nM): inactive: -0.0452
  TEAD-luciferase reporter activity (compound concentration: 10 uM): inactive: 0.0881

Additional entries follow:

Row | SMILES | TEAD-luciferase reporter activity (compound concentration: 200 nM) | TEAD-luciferase reporter activity (compound concentration: 2 uM) | TEAD-luciferase reporter activity (compound concentration: 10 uM)
41 | CC(C)c1ccc(C(=O)NCCOc2ccc(C(=O)O)cc2)cc1 | inactive: 0.0521 | inactive: -1.5 | inactive: 1.62
42 | CN1CCC/C1=N\C(=N\c1ccccc1)N1CCCC1 | inactive: -0.209 | – | inactive: -0.453
43 | S=c1[nH]cc(CC2CC=CC2)[nH]1 | inactive: -2.21 | inactive: 0.503 | inactive: -1.14
44 | O=c1c(-c2ccc(O)cc2)coc2c([C@@H]3O[C@H](CO)[C@@H](O)[C@H](O)[C@H]3O)c(O)ccc12 [Kakonein] | inactive: -1.59 | inactive: -1.25 | inactive: -0.695
45 | S=C(N/N=C1/CCCc2cccnc21)N1CCN(c2ccccn2)CC1 | inactive: -0.388 | inactive: 1.64 | active: 5.2
46 | CN1CC(O)C2=C/C(=N\NC(N)=O)C(=O)C=C21 (stereo unspecified) | inactive: -1.27 | inactive: -1.21 | inactive: 0.0678
47 | COc1ccc2cc([C@@H](C)CO)ccc2c1 | inactive: -1.27 | inactive: -0.886 | inactive: 1.59
48 | c1cc(CN2CCCNCCNCCCNCC2)ccc1CN1CCCNCCNCCCNCC1 [Plerixafor hydrochloride] | inactive: 0.44 | inactive: -1.26 | inactive: 1.26
49 | CCCN1CCCC12Cc1ccccc1CN(C(=O)CC)C2 (stereo unspecified) | inactive: 1.7 | – | active: 6.82
50 | Cc1ccc(NC(=O)C(O)C(O)C(O)CO)cc1C (stereo unspecified) | inactive: 0.805 | inactive: -0.404 | inactive: -2.68
51 | Cn1c(=O)[nH]c2ncn(CC(C)(C)C)c2c1=O | inactive: -0.915 | inactive: 0.159 | inactive: 0.856
52 | CC(=O)Nc1ccc(OC2(C)OC(=O)c3ccccc3O2)cc1 (stereo unspecified) | inactive: 0.176 | inactive: -0.487 | inactive: -1.17
53 | O=C(O)CCc1cc(I)c(Oc2ccc(O)c(I)c2)c(I)c1 [Triiodothyropropionic acid] | inactive: -0.784 | inactive: -0.244 | inactive: -0.173
54 | O=C(C[n+]1ccsc1)c1ccccc1 | inactive: 0.0317 | inactive: 0.428 | inactive: 0.53
55 | CSc1ccc2c(c1)N(CCC1CCCCN1C)c1ccccc1S2 (stereo unspecified) [thioridazine] | – | inactive: 2.26 | –
56 | CSc1ccc2c(c1)N(CCC1CCCCN1C)c1ccccc1S2 (stereo unspecified) | inactive: -1.43 | – | inactive: -1.67
57 | Nc1nccc(Oc2ccc(NC(=O)c3cn(COP(=O)(O)O)cc(-c4ccc(F)cc4)c3=O)cc2F)c1Cl [Metatinib tromethamine] | inactive: -1.28 | inactive: -1.2 | inactive: 0.215
58 | CC(C)(Oc1ccc(Cl)cc1)C(=O)NC(=O)NCN1CCOCC1 | inactive: -0.069 | inactive: -0.185 | inactive: 1.86
59 | CC(C)CC[C@@H](O)[C@@H](C)[C@H]1CC[C@H]2[C@@H]3CC=C4C[C@@H](O)CC[C@]4(C)[C@H]3CC[C@]12C [22(R)-Hydroxycholesterol] | inactive: -0.104 | inactive: 0.392 | inactive: 2.19
